{
  "source": "the supplement of paper PMC3334620",
  "note": "The full ranking holds about 33,000 sequences; the median of “E-score (-0.5 to 0.5)” is about -0.0034, and the highest 2% start at about 0.25. The list shows a part of the results.",
  "data": [
    {"molecular_target": "T1, Yap3 (UniProt P38749)", "T1 sequence": "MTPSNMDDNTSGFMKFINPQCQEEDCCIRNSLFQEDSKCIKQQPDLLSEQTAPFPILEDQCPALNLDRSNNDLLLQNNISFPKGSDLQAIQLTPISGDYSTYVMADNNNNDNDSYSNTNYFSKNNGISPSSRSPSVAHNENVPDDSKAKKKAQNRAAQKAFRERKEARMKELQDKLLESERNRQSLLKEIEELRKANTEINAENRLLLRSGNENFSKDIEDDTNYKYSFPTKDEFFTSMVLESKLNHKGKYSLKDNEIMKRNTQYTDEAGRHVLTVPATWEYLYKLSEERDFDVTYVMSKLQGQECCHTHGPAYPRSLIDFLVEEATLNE", "test": "PBM E-score (8-mer binding enrichment) (E-score (-0.5 to 0.5)); higher = stronger / more preferred TF binding", "details": "protein concentration: 100 nM; construct: GST-full length", "in_short": "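Each ungapped eight-base word and its reverse complement, pooled, received an E-score from the Universal PBM Analysis Suite. Underlying scans, normalised with masliner, recorded fluorescent anti-GST bound to GST-tagged yeast transcription factors. These were applied at about 100-200 nM to universal all-10-mer Agilent arrays double-stranded by primer extension.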", "values": [
      {"sequence": "CAAGATCC", "PBM E-score": 0.027},
      {"sequence": "CACCCAAG", "PBM E-score": -0.127},
      {"sequence": "GAGAACTA", "PBM E-score": 0.126},
      {"sequence": "TCATAGCA", "PBM E-score": 0.0921},
      {"sequence": "AACCTAGA", "PBM E-score": 0.0352},
      {"sequence": "GAACCGCA", "PBM E-score": 0.0221},
      {"sequence": "ATGACTGA", "PBM E-score": 0.0192},
      {"sequence": "AAGCAACG", "PBM E-score": 0.206},
      {"sequence": "CGCATTCA", "PBM E-score": 0.147},
      {"sequence": "GTCTCTTA", "PBM E-score": 0.0442},
      {"sequence": "CTAGTGGA", "PBM E-score": -0.162},
      {"sequence": "AATGCTAC", "PBM E-score": 0.0564},
      {"sequence": "ACGAAACT", "PBM E-score": -0.00832},
      {"sequence": "AGAGGGCA", "PBM E-score": -0.192},
      {"sequence": "GCGCCCAC", "PBM E-score": -0.0948},
      {"sequence": "AAAGTGAG", "PBM E-score": 0.202},
      {"sequence": "ATAGCGAC", "PBM E-score": -0.0481},
      {"sequence": "ACATGTCT", "PBM E-score": 0.0711},
      {"sequence": "ATATACGA", "PBM E-score": 0.0617},
      {"sequence": "ATTCGTCC", "PBM E-score": 0.213},
      {"sequence": "CGCAGCGC", "PBM E-score": -0.124},
      {"sequence": "GGTCCTAC", "PBM E-score": -0.239},
      {"sequence": "ATGATCAA", "PBM E-score": 0.131},
      {"sequence": "CCGAGCCG", "PBM E-score": 0.0228},
      {"sequence": "ATCAACCA", "PBM E-score": 0.0491},
      {"sequence": "CCGGTTAC", "PBM E-score": 0.0259},
      {"sequence": "AGCGCTGA", "PBM E-score": -0.0364},
      {"sequence": "CATGGCAG", "PBM E-score": 0.00112},
      {"sequence": "ATTCTTGA", "PBM E-score": 0.163},
      {"sequence": "ATTGCCCG", "PBM E-score": -0.015},
      {"sequence": "GCTGATCA", "PBM E-score": -0.0252},
      {"sequence": "TATTGAAA", "PBM E-score": 0.254},
      {"sequence": "CGCGCCAA", "PBM E-score": -0.0259},
      {"sequence": "TGAAGGAA", "PBM E-score": 0.0749},
      {"sequence": "ATATCACC", "PBM E-score": 0.235},
      {"sequence": "ACGGGTCG", "PBM E-score": 0.0117},
      {"sequence": "CCGCAACA", "PBM E-score": 0.066},
      {"sequence": "CGCATCAG", "PBM E-score": 0.0688},
      {"sequence": "CCGTTCTA", "PBM E-score": 0.0674},
      {"sequence": "ATGTAGCC", "PBM E-score": -0.126},
      {"sequence": "ACATTGGA", "PBM E-score": -0.0349},
      {"sequence": "ACGAAGCT", "PBM E-score": 0.0423},
      {"sequence": "AGAGCCGC", "PBM E-score": -0.0382},
      {"sequence": "ATTTAATG", "PBM E-score": 0.282},
      {"sequence": "AAGTGCTG", "PBM E-score": 0.043},
      {"sequence": "AAAGGCTT", "PBM E-score": 0.00142},
      {"sequence": "GATTCTTA", "PBM E-score": 0.201},
      {"sequence": "AATGTTGA", "PBM E-score": 0.0691},
      {"sequence": "TGATAGAA", "PBM E-score": 0.0457},
      {"sequence": "TCTCCAAA", "PBM E-score": 0.0406},
      {"sequence": "ACTCATTC", "PBM E-score": 0.16},
      {"sequence": "GTATATTA", "PBM E-score": 0.211},
      {"sequence": "AGGTCTAC", "PBM E-score": -0.138},
      {"sequence": "CGCTATCC", "PBM E-score": 0.0718},
      {"sequence": "CATCGAAG", "PBM E-score": 0.0748},
      {"sequence": "AATTCTGG", "PBM E-score": -0.00568},
      {"sequence": "ATTCGTGC", "PBM E-score": 0.104},
      {"sequence": "CTGTCCTA", "PBM E-score": -0.139},
      {"sequence": "AACAACCC", "PBM E-score": -0.00587},
      {"sequence": "GATTCGTA", "PBM E-score": 0.121},
      {"sequence": "ACTAGTCG", "PBM E-score": -0.0486},
      {"sequence": "CCCCTTAG", "PBM E-score": -0.24},
      {"sequence": "ACTCTAAG", "PBM E-score": -0.0616},
      {"sequence": "CGATTGCA", "PBM E-score": 0.128},
      {"sequence": "ATGCTATG", "PBM E-score": 0.103},
      {"sequence": "GCTGTTCC", "PBM E-score": -0.117},
      {"sequence": "ATCAGGGA", "PBM E-score": -0.107},
      {"sequence": "AAGTTGGC", "PBM E-score": -0.0678},
      {"sequence": "CGTGTGAC", "PBM E-score": -0.0548},
      {"sequence": "GCCATCCA", "PBM E-score": -0.19},
      {"sequence": "GTCCGTAA", "PBM E-score": -0.0675},
      {"sequence": "ATCTAGTA", "PBM E-score": 0.157},
      {"sequence": "CCGGAGAA", "PBM E-score": 0.0465},
      {"sequence": "CGAATAGA", "PBM E-score": -0.0249},
      {"sequence": "CCTTGGCG", "PBM E-score": -0.385},
      {"sequence": "ACCAGTTC", "PBM E-score": -0.103},
      {"sequence": "CATAAGCG", "PBM E-score": 0.0692},
      {"sequence": "ACTTATTA", "PBM E-score": 0.263},
      {"sequence": "GCACTCGA", "PBM E-score": -0.0644},
      {"sequence": "AGGAGTAA", "PBM E-score": 0.133},
      {"sequence": "CTTCCACC", "PBM E-score": -0.207},
      {"sequence": "CCGGTACG", "PBM E-score": -0.288},
      {"sequence": "GAGCTTAA", "PBM E-score": -0.0469},
      {"sequence": "ATGGACCC", "PBM E-score": -0.0319},
      {"sequence": "ATTATACG", "PBM E-score": 0.244},
      {"sequence": "AACCCTAC", "PBM E-score": -0.163}
    ]}
  ]
}
